Test system: purified luciferases
Test: Bioluminescence emission spectra of purified luciferases with luciferin substrates
Assay type: biochemical
Settings: assayed with NanoLuc

Compound: O=c1c(Cc2ccccc2)nc2c(-c3ccccc3)[nH]c(-c3ccccc3)cn1-2 [DTZ, diphenylterazine]
- red-shift from furimazine: 44 nm

Compound: O=c1c(Cc2ccccc2)nc2c([Se]c3ccccc3)[nH]c(-c3ccccc3)cn1-2 [STZ, 2-benzyl-6-phenyl-8-(phenylselanyl)imidazo[1,2-a]pyrazin-3(7H)-one]
- red-shift from furimazine: 71 nm

Source: patent US10202584B2, “Red-shifted luciferase-luciferin pairs for enhanced bioluminescence” (The Regents of the University of California, priority 2016, dated 2019)
